Consider two substances from publication PMC12450650.

By UniProt entry, the sequences of proteins in these tests, tags left out.
UniProt Q62318: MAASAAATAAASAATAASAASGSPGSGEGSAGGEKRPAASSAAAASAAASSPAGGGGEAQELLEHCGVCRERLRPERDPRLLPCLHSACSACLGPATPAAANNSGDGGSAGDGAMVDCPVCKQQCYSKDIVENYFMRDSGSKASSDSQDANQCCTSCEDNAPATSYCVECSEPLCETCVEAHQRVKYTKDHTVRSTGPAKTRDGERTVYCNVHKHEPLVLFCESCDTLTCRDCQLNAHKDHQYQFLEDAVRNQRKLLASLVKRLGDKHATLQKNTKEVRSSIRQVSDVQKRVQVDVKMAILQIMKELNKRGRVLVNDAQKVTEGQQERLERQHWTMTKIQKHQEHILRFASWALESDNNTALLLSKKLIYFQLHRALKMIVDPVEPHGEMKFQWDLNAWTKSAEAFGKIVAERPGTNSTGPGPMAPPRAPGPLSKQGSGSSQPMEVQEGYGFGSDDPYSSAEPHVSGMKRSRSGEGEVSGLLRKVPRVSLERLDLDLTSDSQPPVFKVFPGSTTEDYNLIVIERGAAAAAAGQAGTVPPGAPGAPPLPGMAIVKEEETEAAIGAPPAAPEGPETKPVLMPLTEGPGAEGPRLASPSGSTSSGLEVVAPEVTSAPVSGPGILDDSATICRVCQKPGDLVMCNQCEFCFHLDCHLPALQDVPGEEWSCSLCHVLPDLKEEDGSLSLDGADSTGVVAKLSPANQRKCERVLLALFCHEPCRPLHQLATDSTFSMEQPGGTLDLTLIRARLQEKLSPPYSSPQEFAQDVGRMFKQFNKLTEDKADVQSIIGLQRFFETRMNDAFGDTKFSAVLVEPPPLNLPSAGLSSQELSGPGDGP
UniProt Q15797: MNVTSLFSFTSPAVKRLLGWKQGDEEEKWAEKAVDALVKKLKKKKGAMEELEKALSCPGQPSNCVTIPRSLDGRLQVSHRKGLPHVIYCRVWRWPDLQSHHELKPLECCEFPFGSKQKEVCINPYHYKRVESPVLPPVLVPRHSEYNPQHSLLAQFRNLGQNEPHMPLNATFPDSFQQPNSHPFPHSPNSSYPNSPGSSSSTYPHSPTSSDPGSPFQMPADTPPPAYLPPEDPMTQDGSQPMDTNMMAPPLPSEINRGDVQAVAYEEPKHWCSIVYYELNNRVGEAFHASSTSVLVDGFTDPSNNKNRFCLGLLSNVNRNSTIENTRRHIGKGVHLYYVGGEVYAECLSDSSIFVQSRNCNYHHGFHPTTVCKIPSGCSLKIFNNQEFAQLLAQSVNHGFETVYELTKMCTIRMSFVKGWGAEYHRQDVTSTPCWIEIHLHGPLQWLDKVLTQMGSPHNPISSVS
UniProt Q13485: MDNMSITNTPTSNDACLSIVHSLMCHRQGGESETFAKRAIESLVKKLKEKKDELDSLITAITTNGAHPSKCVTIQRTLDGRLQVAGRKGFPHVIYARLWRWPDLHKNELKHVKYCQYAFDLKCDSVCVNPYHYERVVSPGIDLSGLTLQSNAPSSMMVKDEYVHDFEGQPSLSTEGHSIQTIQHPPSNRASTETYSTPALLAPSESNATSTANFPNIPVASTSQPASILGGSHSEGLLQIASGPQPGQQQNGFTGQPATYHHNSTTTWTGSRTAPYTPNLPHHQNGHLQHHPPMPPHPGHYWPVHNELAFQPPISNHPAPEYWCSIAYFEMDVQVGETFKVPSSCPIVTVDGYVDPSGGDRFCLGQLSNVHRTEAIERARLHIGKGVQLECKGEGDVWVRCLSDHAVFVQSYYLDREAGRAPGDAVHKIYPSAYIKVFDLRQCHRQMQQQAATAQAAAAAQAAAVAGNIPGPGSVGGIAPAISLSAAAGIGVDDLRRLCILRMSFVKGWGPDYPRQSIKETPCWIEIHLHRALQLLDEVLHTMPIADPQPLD

Results are given in words; binding and its absence hold for the method and conditions named. For some of these results: Binding seen in cells or lysates may run through a third protein. For some of these results: Sequences can lack the tags named with a protein. Some entries that bind do so weakly or less than the wild type.

The target in test [1] is FLAG-tagged TRIM28 (mouse) (mouse) (UniProt Q62318). The experiment in a line: co-IP; HEK293T cells transiently transfected, 36 h; lysis buffer 20 mM Hepes, 100 mM NaCl, 0.5 mM EDTA, 10% glycerol, 0.2% NP-40; FLAG-tagged protein precipitated with anti-FLAG M2 on anti-mouse IgG Dynabeads, 4 h; Western blot.
The target in test [2] is T1, FLAG-tagged KDM1B (mouse) (mouse) (UniProt Q8CIG3).
T1 sequence: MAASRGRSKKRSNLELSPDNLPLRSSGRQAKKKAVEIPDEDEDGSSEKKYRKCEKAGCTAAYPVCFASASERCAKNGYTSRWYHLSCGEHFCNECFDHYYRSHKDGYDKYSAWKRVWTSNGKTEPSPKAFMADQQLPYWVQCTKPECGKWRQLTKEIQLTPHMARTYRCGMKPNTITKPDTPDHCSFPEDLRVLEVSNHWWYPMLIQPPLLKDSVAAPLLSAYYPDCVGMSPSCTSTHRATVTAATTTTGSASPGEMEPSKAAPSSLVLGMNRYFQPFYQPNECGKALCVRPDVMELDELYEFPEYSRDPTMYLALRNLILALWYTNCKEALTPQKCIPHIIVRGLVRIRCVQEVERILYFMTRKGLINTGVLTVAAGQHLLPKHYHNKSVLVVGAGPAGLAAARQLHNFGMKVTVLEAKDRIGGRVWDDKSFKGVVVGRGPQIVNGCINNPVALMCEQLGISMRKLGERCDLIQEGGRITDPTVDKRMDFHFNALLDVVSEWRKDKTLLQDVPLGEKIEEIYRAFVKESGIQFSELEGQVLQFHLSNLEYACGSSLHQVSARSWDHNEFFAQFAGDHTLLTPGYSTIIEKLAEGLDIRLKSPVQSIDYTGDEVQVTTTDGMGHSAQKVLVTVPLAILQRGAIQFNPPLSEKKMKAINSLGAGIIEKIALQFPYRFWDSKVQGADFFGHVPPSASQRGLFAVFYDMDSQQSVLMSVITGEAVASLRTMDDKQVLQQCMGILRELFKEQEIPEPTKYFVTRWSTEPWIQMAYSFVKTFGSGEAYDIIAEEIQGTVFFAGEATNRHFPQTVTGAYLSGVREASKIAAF
The test is described as above.

Test [3] concerns the target T2, FLAG-tagged ZFP57 (mouse) (mouse) (UniProt Q8C6P8).
T2 sequence: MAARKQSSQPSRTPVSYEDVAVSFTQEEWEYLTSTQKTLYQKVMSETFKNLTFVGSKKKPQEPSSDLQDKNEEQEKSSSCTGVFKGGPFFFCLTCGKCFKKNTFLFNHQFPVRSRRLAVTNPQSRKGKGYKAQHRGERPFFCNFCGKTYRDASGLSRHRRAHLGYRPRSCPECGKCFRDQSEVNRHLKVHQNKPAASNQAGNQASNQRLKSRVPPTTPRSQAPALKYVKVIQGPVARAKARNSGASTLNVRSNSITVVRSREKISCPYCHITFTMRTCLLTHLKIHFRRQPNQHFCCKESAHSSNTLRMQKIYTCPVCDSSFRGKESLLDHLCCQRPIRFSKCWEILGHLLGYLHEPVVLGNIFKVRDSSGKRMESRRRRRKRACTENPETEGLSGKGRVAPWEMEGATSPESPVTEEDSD
The description is as above.

Test [4] deals with Recombinant human SMAD1 (ab84653; Abcam) (human) (UniProt Q15797). The experiment in a line: pull-down; recombinant proteins (500 ng each) with anti-SMAD1 antibody (913C1b) on anti-mouse IgG Dynabeads, SMAD1 as bait; PBST, room temperature, 15 min; Western blot; both purified. On the technique in general: Immunoblotting shows a protein as a band on a membrane.

Take “Myc-tagged SMAD1 (from UniProt Q15797 1-465)”: the binding entry in test [1], in test [2] and in test [3] was “no binding” throughout.
“Recombinant human SMAD4 (ab81764; Abcam) (from UniProt Q13485 1-552)”: the binding result in test [4] was “binds”.
